For assay [1], the target named is MINI3 C189:MYC:His (Arabidopsis thaliana) (UniProt Q9LG05). Briefly: pull-down; His affinity-precipitation from protein extracts of Nicotiana leaves after transient expression (harvested 5 days after infiltration), cold co-precipitation buffer.
Assay [2] has as its target MINI3 N302:MYC:His (Arabidopsis thaliana) (UniProt Q9LG05). Described as above.

Amino acid sequences for entries named in this document (tags omitted). A change or cut given only in a name is not applied to a line headed by its entry. Residues count along the entry.
UniProt Q9LG05: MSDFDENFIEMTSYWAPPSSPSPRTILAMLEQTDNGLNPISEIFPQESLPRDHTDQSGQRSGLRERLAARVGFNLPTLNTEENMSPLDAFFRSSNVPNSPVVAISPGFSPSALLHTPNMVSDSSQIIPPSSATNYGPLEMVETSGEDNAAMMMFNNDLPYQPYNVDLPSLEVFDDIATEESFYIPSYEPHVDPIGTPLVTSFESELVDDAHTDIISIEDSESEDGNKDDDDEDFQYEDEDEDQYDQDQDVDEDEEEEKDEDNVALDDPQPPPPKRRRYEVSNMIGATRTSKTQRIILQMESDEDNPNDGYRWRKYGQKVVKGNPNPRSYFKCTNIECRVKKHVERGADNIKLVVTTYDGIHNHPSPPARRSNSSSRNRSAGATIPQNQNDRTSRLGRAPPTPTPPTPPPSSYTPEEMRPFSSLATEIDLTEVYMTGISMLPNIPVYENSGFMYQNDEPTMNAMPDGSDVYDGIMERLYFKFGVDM
MINI3 N302:MYC:His: residues 1-302 of Q9LG05
MINI3 C189:MYC:His: residues 297-485 of Q9LG05
UniProt Q6R8G6: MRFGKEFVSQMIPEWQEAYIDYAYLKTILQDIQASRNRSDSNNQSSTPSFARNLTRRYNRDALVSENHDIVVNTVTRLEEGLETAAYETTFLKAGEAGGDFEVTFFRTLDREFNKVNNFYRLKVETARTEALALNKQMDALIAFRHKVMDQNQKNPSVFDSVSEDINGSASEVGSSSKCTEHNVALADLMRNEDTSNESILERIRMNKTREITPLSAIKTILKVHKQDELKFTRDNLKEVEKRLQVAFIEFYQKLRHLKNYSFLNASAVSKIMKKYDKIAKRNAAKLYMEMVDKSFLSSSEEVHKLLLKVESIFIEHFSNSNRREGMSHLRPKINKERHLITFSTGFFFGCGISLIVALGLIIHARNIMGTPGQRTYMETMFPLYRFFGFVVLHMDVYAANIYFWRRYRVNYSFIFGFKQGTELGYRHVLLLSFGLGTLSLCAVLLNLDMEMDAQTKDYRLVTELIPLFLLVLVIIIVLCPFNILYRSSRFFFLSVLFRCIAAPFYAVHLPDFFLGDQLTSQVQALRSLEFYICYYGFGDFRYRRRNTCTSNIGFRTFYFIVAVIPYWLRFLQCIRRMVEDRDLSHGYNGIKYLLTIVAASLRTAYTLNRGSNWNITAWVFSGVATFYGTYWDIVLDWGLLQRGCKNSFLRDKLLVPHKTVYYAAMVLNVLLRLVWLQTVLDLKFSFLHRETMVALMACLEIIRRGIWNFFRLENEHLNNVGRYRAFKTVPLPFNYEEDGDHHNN

Results are given in words; binding and its absence hold for the method and conditions named. Binding seen in cells or lysates may run through a third protein. For some assays here: Binding calls can cover weak binding; strength is not graded here.

Regarding “SHB1:GFP (full-length SHB1 fused to GFP at its C-terminus) (from UniProt Q6R8G6)”, the results for the binding entry in assay [1] and in assay [2] were “no binding” and “binds”, respectively.

Source of the values: publication PMC3591269.
